We go through one molecule from article PMC8748630.

By UniProt entry, the sequences of proteins in these tests, tags left out.
UniProt Q96SW2: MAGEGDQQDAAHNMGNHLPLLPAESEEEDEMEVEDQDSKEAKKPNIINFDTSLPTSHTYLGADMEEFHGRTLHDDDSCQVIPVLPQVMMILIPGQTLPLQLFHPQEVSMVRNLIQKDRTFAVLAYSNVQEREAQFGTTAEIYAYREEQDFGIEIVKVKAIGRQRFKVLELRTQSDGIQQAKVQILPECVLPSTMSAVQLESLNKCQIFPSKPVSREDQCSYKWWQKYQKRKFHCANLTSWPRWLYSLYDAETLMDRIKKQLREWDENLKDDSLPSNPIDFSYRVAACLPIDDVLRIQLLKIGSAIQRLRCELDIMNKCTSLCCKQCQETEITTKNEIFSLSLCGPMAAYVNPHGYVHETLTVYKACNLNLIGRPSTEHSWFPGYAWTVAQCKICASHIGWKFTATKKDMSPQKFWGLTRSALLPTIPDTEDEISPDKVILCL

The experiment addresses biotin-labelled bls-CRBN (UniProt Q96SW2). Description: AlphaScreen or HTRF; AlphaScreen: biotinylated bls-CRBN mixture, FLAG-GST-substrate mixture and DMSO or 20 µM IMiDs; 100 mM Tris pH 8.0, 0.01% Tween20, 100 mM NaCl, 1 mg/mL BSA, 26 °C 1 h; anti-DYKDDDDK mAb, streptavidin donor and Protein A acceptor beads; wheat cell-free proteins.

These are yes or no findings as the source states them, for the method shown. Tags and fused reporters may be left off the sequences shown.

B1: FLAG-GST-ZMYM3 (protein, UniProt Q14202 1-1370)
chain: MDPSDFPSPFDPLTLPEKPLAGDLPVDMEFGEDLLESQTAPTRGWAPPGPSPSSGALDLLDTPAGLEKDPGVLDGATELLGLGGLLYKAPSPPEVDHGPEGTLAWDAGDQTLEPGPGGQTPEVVPPDPGAGANSCSPEGLLEPLAPDSPITLQSPHIEEEETTSIATARRGSPGQEEELPQGQPQSPNAPPSPSVGETLGDGINSSQTKPGGSSPPAHPSLPGDGLTAKASEKPPERKRSERVRRAEPPKPEVVDSTESIPVSDEDSDAMVDDPNDEDFVPFRPRRSPRMSLRSSVSQRAGRSAVGTKMTCAHCRTPLQKGQTAYQRKGLPQLFCSSSCLTTFSKKPSGKKTCTFCKKEIWNTKDSVVAQTGSGGSFHEFCTSVCLSLYEAQQQRPIPQSGDPADATRCSICQKTGEVLHEVSNGSVVHRLCSDSCFSKFRANKGLKTNCCDQCGAYIYTKTGSPGPELLFHEGQQKRFCNTTCLGAYKKKNTRVYPCVWCKTLCKNFEMLSHVDRNGKTSLFCSLCCTTSYKVKQAGLTGPPRPCSFCRRSLSDPCYYNKVDRTVYQFCSPSCWTKFQRTSPEGGIHLSCHYCHSLFSGKPEVLDWQDQVFQFCCRDCCEDFKRLRGVVSQCEHCRQEKLLHEKLRFSGVEKSFCSEGCVLLYKQDFTKKLGLCCITCTYCSQTCQRGVTEQLDGSTWDFCSEDCKSKYLLWYCKAARCHACKRQGKLLETIHWRGQIRHFCNQQCLLRFYSQQNQPNLDTQSGPESLLNSQSPESKPQTPSQTKVENSNTVRTPEENGNLGKIPVKTRSAPTAPTPPPPPPPATPRKNKAAMCKPLMQNRGVSCKVEMKSKGSQTEEWKPQVIVLPIPVPIFVPVPMHLYCQKVPVPFSMPIPVPVPMFLPTTLESTDKIVETIEELKVKIPSNPLEADILAMAEMIAEAEELDKASSDLCDLVSNQSAEGLLEDCDLFGPARDDVLAMAVKMANVLDEPGQDLEADFPKNPLDINPSVDFLFDCGLVGPEDVSTEQDLPRTMRKGQKRLVLSESCSRDSMSSQPSCTGLNYSYGVNAWKCWVQSKYANGETSKGDELRFGPKPMRIKEDILACSAAELNYGLAQFVREITRPNGERYEPDSIYYLCLGIQQYLLENNRMVNIFTDLYYLTFVQELNKSLSTWQPTLLPNNTVFSRVEEEHLWECKQLGVYSPFVLLNTLMFFNTKFFGLQTAEEHMQLSFTNVVRQSRKCTTPRGTTKVVSIRYYAPVRQRKGRDTGPGKRKREDEAPILEQRENRMNPLRCPVKFYEFYLSKCPESLRTRNDVFYLQPERSCIAESPLWYSVIPMDRSMLESMLNRILAVREIYEELGRPGEEDLD
For the molecule B1, the binding result was “no binding (tested: tested with DMSO or 20 µM IMiDs)”.
